According to PubChem BioAssay AID1159536 (DiRusso Lab, Biochemistry Department, University of Nebraska, 2015):
Inconclusive results, whose numbers are uncertain, are shown with a selection of clear calls. Calls of active or inactive are those of the source. How the calls were made is not given here.

assay: algal triacylglycerol accumulation inducers, dose response, qHTS, Chlamydomonas reinhardtii (AID 1159536); conditions: Nile Red lipid fluorescence, 72 h; at 30 µM (top of the series)

Row | Compound | fold change vs untreated, higher = more lipid
1 | O=C(NC1CCN(Cc2ccccc2)CC1)c1ccc(Cl)cc1Cl | active: 12.2
2 | O=C(C1CCN(CC2CCCCC2)CC1)N1CCN(c2ccccc2F)CC1 | inconclusive: 17.2
3 | COc1cccc(CN2CCN(C(=O)c3cc(OC)c(OC)c(OC)c3)CC2)c1OC | inactive: 1.75
4 | O=C(c1ccc(CN2CCOCC2)cc1)N(Cc1ccccc1)Cc1ccccc1 | inconclusive: 13.6
5 | CC(=O)Nc1ccc(OCC(=O)Nc2cc(Cl)cc(Cl)c2)cc1 | inactive: 2.48
6 | COc1ccccc1Cn1c(C(C)O)nc2ccccc21 (stereo unspecified) | inactive: 0.95
7 | COc1cc(C(=O)Nc2cccc(C(=O)c3ccc(C)c(C)c3)c2)cc(OC)c1OC | inconclusive: 3.99
8 | CCc1ccc(CN(C)C2CCN(C)CC2)cc1 | inconclusive: 3.75
9 | Cc1cc(NCc2ccccc2)nc(N2CCOCC2)n1 | inconclusive: 4.12
10 | c1ccc(C2CCC(N3CCN(Cc4ccncc4)CC3)CC2)cc1 (stereo unspecified) | inconclusive: 17.2
11 | C=CCNC(=O)C(C)N(c1ccc(OCC)cc1)S(C)(=O)=O (stereo unspecified) | inactive: 1.69
12 | Cc1ccc(CN2CCC(C(=O)NCc3ccccc3Cl)CC2)cc1 | active: 15.2
13 | Clc1cc(Br)ccc1OCCOCCN1CCOCC1 | inconclusive: 13.5
14 | CCN1CCN(C2CCC(C(C)(C)C)CC2)CC1 (stereo unspecified) | inactive: 2.66
15 | CC(C)(C)c1ccc(OCCCCN2CCOCC2)cc1 | active: 3.88
16 | Cc1ccc(OCCCCN2CCCC2)c(C)c1 | active: 6.28
17 | COc1cc([N+](=O)[O-])ccc1NC(=O)c1c(F)c(F)c(F)c(F)c1F | inconclusive: 3.84
18 | COc1cc(NC(=O)C(Cl)Cl)c(OC)cc1Cl | inactive: 1.42

Row | Compound | fold change vs untreated, higher = more lipid
19 | COc1ccc(N2CCN(Cc3ccsc3)CC2)cc1 | inconclusive: 12.6
20 | Cc1sc(NC(=O)c2cccs2)c(C(=O)O)c1C | inactive: 1.38
21 | Cc1ccc(OCCOCCN2CCN(C)CC2)c(I)c1 | inconclusive: 7.47
22 | COc1ccc(S(=O)(=O)N(CC(=O)NC(C)C)c2cc(C)cc(C)c2)cc1OC | inactive: 1.07
23 | Fc1ccccc1CSC1=NCCN1 | inconclusive: 3.71
24 | Cc1ccc(Cn2cnc3c(cnn3-c3ccccc3)c2=O)c(C)c1 | inactive: 3
25 | CC(C)c1ccc(CN2CCOCC2)cc1 | inconclusive: 10.6
26 | Cc1c(N/C=C/C(=O)c2cccs2)c(=O)n(-c2ccccc2)n1C | inactive: 1.42
27 | O=C(Nc1ccc2c(c1)OCO2)c1c(F)c(F)c(F)c(F)c1F | inconclusive: 4.86
28 | O=C(Nc1ccc(Cl)cc1F)c1c(F)c(F)c(F)c(F)c1F | inconclusive: 5.06
29 | Cc1ccc(S(=O)(=O)c2ccc(-c3ccc([N+](=O)[O-])cc3)cc2)cc1 | inconclusive: 2.11
30 | COc1cc(-c2ccc(NC(=O)c3ccco3)c(OC)c2)ccc1NC(=O)c1ccco1 | inactive: 1.4
31 | Cc1cc(Cl)c(OCCn2ccnc2)c(Br)c1 | active: 5.38
32 | c1ccc2c(c1)CCN(Cc1ccc3c(c1)OCO3)C2 | inconclusive: 13.9
33 | COc1cccc(C(=O)Nc2ccc3oc(-c4ccncc4)nc3c2)c1 | inconclusive: 7.42
34 | Cc1c(C(=O)Nc2ccccc2C(=O)NCc2ccccc2)cccc1[N+](=O)[O-] | inactive: 2.77
35 | Cc1cc(OCCCCN2CCOCC2)ccc1C(C)C | inconclusive: 3.47
36 | CCN1CCN(CC(O)COCCC23CC4CC(CC(C4)C2)C3)CC1 (stereo unspecified) | inconclusive: 11.9

A draw from above in order of count of non-hydrogen atoms, descending.
Row | Compound | fold change vs untreated, higher = more lipid
24 | Cc1ccc(Cn2cnc3c(cnn3-c3ccccc3)c2=O)c(C)c1 | inactive: 3
35 | Cc1cc(OCCCCN2CCOCC2)ccc1C(C)C | inconclusive: 3.47
31 | Cc1cc(Cl)c(OCCn2ccnc2)c(Br)c1 | active: 5.38
